# Source: the supplement of paper PMC10849652
# Amino acid sequences for entries named in this document (tags omitted). A change or cut given only in a name is not applied to a line headed by its entry.
# UniProt Q9BV94: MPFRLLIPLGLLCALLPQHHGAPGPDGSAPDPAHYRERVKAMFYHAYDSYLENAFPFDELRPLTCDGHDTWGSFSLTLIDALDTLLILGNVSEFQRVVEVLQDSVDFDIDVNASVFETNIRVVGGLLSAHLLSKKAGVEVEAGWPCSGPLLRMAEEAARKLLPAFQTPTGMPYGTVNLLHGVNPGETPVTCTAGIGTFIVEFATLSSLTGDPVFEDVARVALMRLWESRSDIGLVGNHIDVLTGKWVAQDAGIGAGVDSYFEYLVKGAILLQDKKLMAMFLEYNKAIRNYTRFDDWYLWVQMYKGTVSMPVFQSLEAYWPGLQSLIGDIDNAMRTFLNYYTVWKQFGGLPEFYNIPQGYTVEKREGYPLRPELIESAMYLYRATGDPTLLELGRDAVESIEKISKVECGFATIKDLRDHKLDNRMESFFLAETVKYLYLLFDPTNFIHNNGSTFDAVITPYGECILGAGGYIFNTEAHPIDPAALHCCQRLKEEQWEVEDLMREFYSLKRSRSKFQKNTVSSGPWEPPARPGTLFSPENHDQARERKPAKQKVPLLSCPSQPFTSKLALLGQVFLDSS
# UniProt Q9NRW4: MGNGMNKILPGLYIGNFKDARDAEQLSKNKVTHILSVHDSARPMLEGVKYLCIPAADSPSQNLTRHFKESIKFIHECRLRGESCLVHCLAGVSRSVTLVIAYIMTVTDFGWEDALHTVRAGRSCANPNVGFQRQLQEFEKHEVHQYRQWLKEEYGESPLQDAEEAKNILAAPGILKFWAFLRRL
# UniProt P98172: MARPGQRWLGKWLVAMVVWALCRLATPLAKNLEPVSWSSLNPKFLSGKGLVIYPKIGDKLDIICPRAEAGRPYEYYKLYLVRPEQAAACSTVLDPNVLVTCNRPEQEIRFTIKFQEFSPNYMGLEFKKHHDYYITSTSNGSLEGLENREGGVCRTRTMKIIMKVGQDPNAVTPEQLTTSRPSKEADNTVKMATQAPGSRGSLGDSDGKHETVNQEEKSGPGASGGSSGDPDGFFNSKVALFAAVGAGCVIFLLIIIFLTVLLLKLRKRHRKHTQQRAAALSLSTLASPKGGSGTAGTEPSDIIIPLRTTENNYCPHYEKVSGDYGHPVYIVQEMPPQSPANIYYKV
# UniProt P51452: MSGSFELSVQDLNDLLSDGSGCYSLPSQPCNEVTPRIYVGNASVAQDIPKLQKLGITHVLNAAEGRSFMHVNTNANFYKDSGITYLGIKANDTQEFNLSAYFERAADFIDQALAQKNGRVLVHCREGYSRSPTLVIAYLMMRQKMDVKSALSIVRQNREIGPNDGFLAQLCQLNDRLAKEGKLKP
# UniProt Q9H9B1: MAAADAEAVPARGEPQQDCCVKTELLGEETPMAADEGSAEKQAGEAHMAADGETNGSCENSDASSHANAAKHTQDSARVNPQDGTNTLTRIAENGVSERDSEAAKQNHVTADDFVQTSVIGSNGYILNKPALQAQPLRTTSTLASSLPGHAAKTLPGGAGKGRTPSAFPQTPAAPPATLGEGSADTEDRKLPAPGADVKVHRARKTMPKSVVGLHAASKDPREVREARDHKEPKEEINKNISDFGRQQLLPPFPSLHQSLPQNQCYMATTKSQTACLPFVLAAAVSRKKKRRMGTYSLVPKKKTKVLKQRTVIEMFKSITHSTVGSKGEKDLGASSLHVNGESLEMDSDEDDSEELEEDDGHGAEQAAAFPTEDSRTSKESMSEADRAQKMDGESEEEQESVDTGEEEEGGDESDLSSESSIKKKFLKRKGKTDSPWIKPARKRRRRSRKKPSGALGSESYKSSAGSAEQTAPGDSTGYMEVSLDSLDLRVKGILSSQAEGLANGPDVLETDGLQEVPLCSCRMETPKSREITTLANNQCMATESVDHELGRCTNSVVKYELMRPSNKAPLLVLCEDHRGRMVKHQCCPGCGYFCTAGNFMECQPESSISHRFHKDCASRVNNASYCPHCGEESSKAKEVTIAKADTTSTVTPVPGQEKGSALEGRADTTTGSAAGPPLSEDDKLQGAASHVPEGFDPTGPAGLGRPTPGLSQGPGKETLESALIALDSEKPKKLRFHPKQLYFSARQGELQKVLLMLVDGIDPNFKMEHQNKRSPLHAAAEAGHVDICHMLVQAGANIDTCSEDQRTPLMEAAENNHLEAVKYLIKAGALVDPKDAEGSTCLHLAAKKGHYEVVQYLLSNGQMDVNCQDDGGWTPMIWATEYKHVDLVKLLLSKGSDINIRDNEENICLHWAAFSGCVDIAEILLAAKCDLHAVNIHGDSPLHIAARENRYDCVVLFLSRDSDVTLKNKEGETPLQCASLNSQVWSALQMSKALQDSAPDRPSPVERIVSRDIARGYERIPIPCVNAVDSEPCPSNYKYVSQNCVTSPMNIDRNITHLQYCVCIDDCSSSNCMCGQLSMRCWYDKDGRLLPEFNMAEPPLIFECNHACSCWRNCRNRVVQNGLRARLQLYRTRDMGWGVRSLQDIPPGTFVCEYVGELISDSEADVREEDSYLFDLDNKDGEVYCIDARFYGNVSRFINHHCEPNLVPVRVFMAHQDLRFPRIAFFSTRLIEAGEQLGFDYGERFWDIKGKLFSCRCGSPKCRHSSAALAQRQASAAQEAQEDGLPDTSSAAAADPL
# UniProt Q7Z388: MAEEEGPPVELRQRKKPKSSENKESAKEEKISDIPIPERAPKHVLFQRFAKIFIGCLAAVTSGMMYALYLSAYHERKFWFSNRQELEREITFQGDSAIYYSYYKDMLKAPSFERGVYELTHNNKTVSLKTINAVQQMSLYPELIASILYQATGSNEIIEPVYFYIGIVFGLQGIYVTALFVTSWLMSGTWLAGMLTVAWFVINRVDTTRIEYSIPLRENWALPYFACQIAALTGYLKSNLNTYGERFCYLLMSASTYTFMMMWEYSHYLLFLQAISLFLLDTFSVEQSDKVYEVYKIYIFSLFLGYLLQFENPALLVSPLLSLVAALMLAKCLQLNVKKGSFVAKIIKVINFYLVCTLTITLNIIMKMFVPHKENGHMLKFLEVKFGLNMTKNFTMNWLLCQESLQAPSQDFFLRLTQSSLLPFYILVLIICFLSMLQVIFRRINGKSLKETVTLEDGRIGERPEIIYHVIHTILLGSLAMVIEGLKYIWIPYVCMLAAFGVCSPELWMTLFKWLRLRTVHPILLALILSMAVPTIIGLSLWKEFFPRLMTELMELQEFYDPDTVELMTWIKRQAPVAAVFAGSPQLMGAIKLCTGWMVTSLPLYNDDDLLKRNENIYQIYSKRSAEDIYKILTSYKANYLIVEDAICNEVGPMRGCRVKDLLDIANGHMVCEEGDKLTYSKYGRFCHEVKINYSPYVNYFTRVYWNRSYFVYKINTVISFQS
# UniProt Q6P2E9: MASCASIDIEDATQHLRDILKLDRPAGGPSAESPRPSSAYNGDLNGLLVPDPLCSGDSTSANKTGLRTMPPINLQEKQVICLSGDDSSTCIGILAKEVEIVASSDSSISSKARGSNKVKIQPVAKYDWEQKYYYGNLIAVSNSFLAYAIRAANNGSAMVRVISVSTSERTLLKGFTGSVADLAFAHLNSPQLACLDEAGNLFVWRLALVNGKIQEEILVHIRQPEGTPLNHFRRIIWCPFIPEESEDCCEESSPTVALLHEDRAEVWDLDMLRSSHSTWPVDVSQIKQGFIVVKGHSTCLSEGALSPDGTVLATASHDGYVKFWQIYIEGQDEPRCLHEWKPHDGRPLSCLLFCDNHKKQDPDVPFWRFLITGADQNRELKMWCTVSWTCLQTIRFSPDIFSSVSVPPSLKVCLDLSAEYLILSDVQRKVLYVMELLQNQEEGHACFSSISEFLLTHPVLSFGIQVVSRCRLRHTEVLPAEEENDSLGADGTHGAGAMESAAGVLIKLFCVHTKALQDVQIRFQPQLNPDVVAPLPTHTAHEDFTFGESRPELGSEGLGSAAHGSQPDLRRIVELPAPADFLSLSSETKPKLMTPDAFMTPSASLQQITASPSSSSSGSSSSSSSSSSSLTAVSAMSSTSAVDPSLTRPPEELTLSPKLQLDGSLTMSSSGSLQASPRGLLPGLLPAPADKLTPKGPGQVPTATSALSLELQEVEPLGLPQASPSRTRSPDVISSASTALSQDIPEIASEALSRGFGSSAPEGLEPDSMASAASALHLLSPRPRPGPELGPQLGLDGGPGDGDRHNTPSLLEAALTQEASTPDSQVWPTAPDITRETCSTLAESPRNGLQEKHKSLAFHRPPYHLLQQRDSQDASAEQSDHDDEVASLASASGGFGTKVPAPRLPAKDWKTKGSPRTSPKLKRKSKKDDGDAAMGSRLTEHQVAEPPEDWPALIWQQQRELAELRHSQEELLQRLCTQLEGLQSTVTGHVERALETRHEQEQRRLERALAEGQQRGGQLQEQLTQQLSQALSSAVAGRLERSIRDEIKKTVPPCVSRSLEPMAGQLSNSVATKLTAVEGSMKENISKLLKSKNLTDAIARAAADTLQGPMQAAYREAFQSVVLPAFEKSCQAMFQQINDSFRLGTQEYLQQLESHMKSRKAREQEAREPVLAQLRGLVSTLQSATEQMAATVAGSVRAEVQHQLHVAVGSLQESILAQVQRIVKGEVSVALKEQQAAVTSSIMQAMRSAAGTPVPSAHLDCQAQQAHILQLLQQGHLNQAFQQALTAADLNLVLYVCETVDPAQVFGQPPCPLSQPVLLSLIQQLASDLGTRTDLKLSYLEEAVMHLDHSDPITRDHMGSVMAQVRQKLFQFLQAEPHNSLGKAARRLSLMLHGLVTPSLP
# UniProt Q96FN9: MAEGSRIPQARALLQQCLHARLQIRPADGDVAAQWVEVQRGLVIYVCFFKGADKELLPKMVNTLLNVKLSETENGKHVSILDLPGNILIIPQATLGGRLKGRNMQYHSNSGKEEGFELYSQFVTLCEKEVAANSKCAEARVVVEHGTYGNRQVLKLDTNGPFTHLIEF
# UniProt O60869: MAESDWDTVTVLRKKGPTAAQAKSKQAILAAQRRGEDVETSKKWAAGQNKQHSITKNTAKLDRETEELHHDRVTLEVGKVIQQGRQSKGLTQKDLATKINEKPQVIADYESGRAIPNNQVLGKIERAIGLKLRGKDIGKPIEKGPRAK
# UniProt Q14156: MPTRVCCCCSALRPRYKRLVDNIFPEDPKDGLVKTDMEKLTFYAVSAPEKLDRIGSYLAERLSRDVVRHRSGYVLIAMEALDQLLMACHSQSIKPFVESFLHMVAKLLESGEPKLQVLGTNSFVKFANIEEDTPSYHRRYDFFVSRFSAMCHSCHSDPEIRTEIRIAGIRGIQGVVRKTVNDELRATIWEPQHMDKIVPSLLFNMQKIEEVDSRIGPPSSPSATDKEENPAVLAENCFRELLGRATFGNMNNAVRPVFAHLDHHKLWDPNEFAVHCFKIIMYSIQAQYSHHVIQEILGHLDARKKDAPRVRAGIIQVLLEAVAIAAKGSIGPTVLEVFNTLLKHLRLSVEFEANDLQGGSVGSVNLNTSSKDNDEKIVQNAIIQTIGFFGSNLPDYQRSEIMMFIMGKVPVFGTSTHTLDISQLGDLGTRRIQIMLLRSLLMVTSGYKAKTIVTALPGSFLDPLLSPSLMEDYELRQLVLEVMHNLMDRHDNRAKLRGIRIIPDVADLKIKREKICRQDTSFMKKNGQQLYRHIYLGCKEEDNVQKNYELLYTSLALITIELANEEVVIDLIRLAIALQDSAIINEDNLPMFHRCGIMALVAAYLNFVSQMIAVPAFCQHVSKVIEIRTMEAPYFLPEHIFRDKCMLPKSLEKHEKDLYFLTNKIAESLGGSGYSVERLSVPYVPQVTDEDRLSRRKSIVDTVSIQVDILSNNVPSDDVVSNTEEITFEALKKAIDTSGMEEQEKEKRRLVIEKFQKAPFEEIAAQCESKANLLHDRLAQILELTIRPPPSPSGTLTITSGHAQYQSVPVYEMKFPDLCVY
# UniProt Q9C005, whole entry, looked up: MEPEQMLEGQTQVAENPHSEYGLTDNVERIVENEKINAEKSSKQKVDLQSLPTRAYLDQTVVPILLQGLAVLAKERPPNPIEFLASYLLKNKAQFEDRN
# UniProt Q9H223: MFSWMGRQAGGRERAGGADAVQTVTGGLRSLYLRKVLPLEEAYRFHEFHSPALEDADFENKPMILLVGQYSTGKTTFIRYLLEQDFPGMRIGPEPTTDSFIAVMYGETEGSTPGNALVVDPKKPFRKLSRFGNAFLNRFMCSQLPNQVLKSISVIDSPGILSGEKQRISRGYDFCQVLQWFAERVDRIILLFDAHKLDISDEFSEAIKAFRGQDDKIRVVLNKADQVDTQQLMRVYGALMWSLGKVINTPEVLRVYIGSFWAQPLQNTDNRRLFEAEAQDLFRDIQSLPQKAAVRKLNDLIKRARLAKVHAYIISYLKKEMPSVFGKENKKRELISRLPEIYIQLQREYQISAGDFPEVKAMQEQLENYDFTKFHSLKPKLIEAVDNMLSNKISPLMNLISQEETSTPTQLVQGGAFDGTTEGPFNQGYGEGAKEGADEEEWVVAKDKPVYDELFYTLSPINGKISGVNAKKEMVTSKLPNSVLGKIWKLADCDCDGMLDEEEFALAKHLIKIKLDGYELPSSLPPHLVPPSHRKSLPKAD
# The other results are listed elsewhere or left out.
# Compound: CNC(=O)C1=CC=CC=C1NC2=NC(=NC=C2Cl)NC3=C(C=C(C=C3)N4CCOCC4)OC
# Assay: log2 fold change, soluble protein after heating vs DMSO (PISA); higher = thermal stabilisation; K562 lysate, 10 uM; active = over 0.2 and 3.5 SD of the protein, either way, in both replicates (recomputed)
# In short: (§1)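 Pellets of K562 cells were dounce-homogenised in PBS pH 7.4 with 1 mM MgCl2, and the crude extract was held at 1 mg/mL protein for a 30 min treatment with 10 μM compound. Aliquots were heated for 3 min over 48°C-58°C and pooled before NP-40 was added to 0.5% at 4°C. The supernatant from 21,000xg for 90 min was quantified by TMTpro 16plex LC-MS/MS with channel sums equalised. Values are reported from duplicates as log-two fold change in thermal stability relative to solvent controls.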
row,Target,log2 fold change
1,DVL3 (UniProt Q92997),inactive: 0
2,DYNC2H1 isoform 2 (UniProt Q8NCM8),inactive: 0.023
3,ECHDC1 (UniProt Q9NTX5),inactive: -0.01
4,EDEM2 (UniProt Q9BV94),inactive: -0.019
5,EEF2KMT (UniProt Q96G04),inactive: 0.012
6,DTYMK (UniProt P23919),inactive: 0.01
7,DUSP22 isoform 2 (UniProt Q9NRW4),inactive: -0.066
8,EHHADH (UniProt Q08426),inactive: -0.024
9,EEF2K (UniProt O00418),inactive: 0.035
10,DTL (UniProt Q9NZJ0),inactive: -0.003
11,"EED, A0A5F9ZI63",inactive: 0.039
12,EID1 (UniProt Q9Y6B2),inactive: 0.036
13,EEA1 (UniProt Q15075),inactive: -0.024
14,EFCAB2 isoform 2 (UniProt Q5VUJ9),inactive: -0.044
15,EHBP1 isoform 2 (UniProt Q8NDI1),inactive: 0.03
16,EFNB1 (UniProt P98172),inactive: -0.032

row,Target,log2 fold change
1,DUSP3 (UniProt P51452),inactive: 0
2,EHMT1 (UniProt Q9H9B1),inactive: 0.032
3,DPY19L4 (UniProt Q7Z388),inactive: -0.044
4,EDC4 (UniProt Q6P2E9),inactive: 0.015
5,EEF1G isoform 2 (UniProt P26641),inactive: -0.015
6,DTD2 (UniProt Q96FN9),inactive: 0.075
7,EDF1 (UniProt O60869),inactive: -0.021
8,ECM1 isoform 4 (UniProt Q16610),inactive: 0.019
9,DYSF isoform 13 (UniProt O75923),inactive: 0
10,DSC2 (UniProt Q02487),inactive: -0.086
11,DYNC1I2 isoform 2 (UniProt Q13409),inactive: -0.02
12,DTX3L (UniProt Q8TDB6),inactive: 0.076
13,EFR3A (UniProt Q14156),inactive: 0.031
14,DPY30 (UniProt Q9C005),inactive: 0.08
15,E4F1 (UniProt Q66K89),inactive: 0.264
16,EHD4 (UniProt Q9H223),inactive: -0.002

# Compound: CNC(=O)c1ccc(Nc2ncc(C(F)(F)F)c(NCc3nccnc3N(C)S(C)(=O)=O)n2)cc1 [defactinib]
# Assay: as above
# In short: as §1
row,Target,log2 fold change
1,DVL3 (UniProt Q92997),inactive: -0.203
2,DYNC2H1 isoform 2 (UniProt Q8NCM8),inactive: -0.015
3,ECHDC1 (UniProt Q9NTX5),inactive: -0.002
4,EDEM2 (UniProt Q9BV94),inactive: 0.008
5,EEF2KMT (UniProt Q96G04),inactive: 0.031
6,DTYMK (UniProt P23919),inactive: -0.006
7,DUSP22 isoform 2 (UniProt Q9NRW4),inactive: -0.085
8,EEF2K (UniProt O00418),inactive: -0.003
9,DTL (UniProt Q9NZJ0),inactive: 0.071
10,"EED, A0A5F9ZI63",inactive: 0.003
11,EEA1 (UniProt Q15075),inactive: -0.009
12,EHBP1 isoform 2 (UniProt Q8NDI1),inactive: -0.016
13,EFNB1 (UniProt P98172),inactive: 0.013
14,DUSP3 (UniProt P51452),inactive: 0.041
15,EHMT1 (UniProt Q9H9B1),inactive: -0.001
16,DPY19L4 (UniProt Q7Z388),inactive: -0.058
17,EDC4 (UniProt Q6P2E9),inactive: -0.008
18,EEF1G isoform 2 (UniProt P26641),inactive: 0.008
19,DTD2 (UniProt Q96FN9),inactive: -0.086
20,EDF1 (UniProt O60869),inactive: -0.012
21,ECM1 isoform 4 (UniProt Q16610),inactive: -0.033
22,DYSF isoform 13 (UniProt O75923),inactive: -0.133
23,DSC2 (UniProt Q02487),inactive: 0.094
24,DYNC1I2 isoform 2 (UniProt Q13409),inactive: 0.001
25,DTX3L (UniProt Q8TDB6),inactive: 0.101
26,EFR3A (UniProt Q14156),inactive: 0.005
27,DPY30 (UniProt Q9C005),inactive: 0.171
28,E4F1 (UniProt Q66K89),inactive: -0.117
29,EHD4 (UniProt Q9H223),inactive: -0.014

# Compound: CNc1nc(-c2ccc3c(N)n[nH]c3c2)cc(N2C[C@@H](C(=O)NC3CCCCC3)CC[C@H]2C)n1
# Assay: as above
# In short: as §1
row,Target,log2 fold change
1,DYNC2H1 isoform 2 (UniProt Q8NCM8),inactive: 0.025
2,ECHDC1 (UniProt Q9NTX5),inactive: -0.012
3,EDEM2 (UniProt Q9BV94),inactive: -0.005
4,EEF2KMT (UniProt Q96G04),inactive: 0.091
5,DTYMK (UniProt P23919),inactive: 0.04
6,DUSP22 isoform 2 (UniProt Q9NRW4),inactive: 0.043
7,EHHADH (UniProt Q08426),inactive: 0.101
8,EEF2K (UniProt O00418),inactive: -0.001
9,DTL (UniProt Q9NZJ0),inactive: -0.092
10,"EED, A0A5F9ZI63",inactive: 0.036
11,EID1 (UniProt Q9Y6B2),inactive: 0.046
12,EEA1 (UniProt Q15075),inactive: 0.002
13,EHBP1 isoform 2 (UniProt Q8NDI1),inactive: 0.01
14,EFNB1 (UniProt P98172),inactive: 0.031
15,DUSP3 (UniProt P51452),inactive: 0.035
16,EHMT1 (UniProt Q9H9B1),inactive: 0.15
17,DPY19L4 (UniProt Q7Z388),inactive: -0.137
18,EDC4 (UniProt Q6P2E9),inactive: -0.034
19,EEF1G isoform 2 (UniProt P26641),inactive: -0.028
20,DTD2 (UniProt Q96FN9),inactive: 0.092
21,EDF1 (UniProt O60869),inactive: 0.121
22,ECM1 isoform 4 (UniProt Q16610),inactive: 0.003
23,DYSF isoform 13 (UniProt O75923),inactive: 0.184
24,DSC2 (UniProt Q02487),inactive: 0.048
25,DYNC1I2 isoform 2 (UniProt Q13409),inactive: -0.039
26,DTX3L (UniProt Q8TDB6),inactive: 0.041
27,EFR3A (UniProt Q14156),inactive: -0.12
28,DPY30 (UniProt Q9C005),inactive: 0.028
29,E4F1 (UniProt Q66K89),inactive: 0.012
30,EHD4 (UniProt Q9H223),inactive: -0.111
